Data as given in PubChem BioAssay AID1224830 (NIAID, 2016)
Shown is one part, drawn at random, of about 18,000 reagents tested. Of all reagents, about 2,900 (16%) got an active call. 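Calls are made per well; low scores hint the gene aids the LPS response, high scores that it dampens it.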 Repeated entries: four replicate wells of each siRNA pool.

Purpose: 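Host factors that control LPS-induced TNF expression in human macrophages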 (primary screen)
System: human THP-1 monocytic leukaemia cells, TNF dual-luciferase reporter clone, PMA-differentiated to macrophage-like cells
Reagent: siRNA pool against human genes, 50 nM
Timing: LPS for 4 h, given about 3 days after siRNA transfection
Treatment: bacterial LPS (TLR4 ligand), 10 ng/ml
Measurement: 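TNF firefly reporter luminescence divided by renilla, normalised to the plate median, then turned into a robust z-score for each replicate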
Direction: TNF reporter robust z-score: higher = stronger TNF reporter response to LPS
Rule for the call: 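Each well counts as active if its z-score is over 2.8 or under -1.5; controls are left without a call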

Target gene	TNF reporter robust z-score	Call
YTHDF2 (YTH N6-methyladenosine RNA binding protein F2)	1.15	inactive
YTHDF2 (YTH N6-methyladenosine RNA binding protein F2)	0.09	inactive
YTHDF2 (YTH N6-methyladenosine RNA binding protein F2)	0.67	inactive
YTHDF2 (YTH N6-methyladenosine RNA binding protein F2)	0.14	inactive
EMC8 (ER membrane protein complex subunit 8)	0.96	inactive
EMC8 (ER membrane protein complex subunit 8)	-1	inactive
EMC8 (ER membrane protein complex subunit 8)	0.83	inactive
EMC8 (ER membrane protein complex subunit 8)	0.39	inactive
HLA-C (major histocompatibility complex, class I, C)	0.75	inactive
HLA-C (major histocompatibility complex, class I, C)	0.62	inactive
HLA-C (major histocompatibility complex, class I, C)	0.71	inactive
HLA-C (major histocompatibility complex, class I, C)	-0.17	inactive
CLVS1 (clavesin 1)	-0.65	inactive
CLVS1 (clavesin 1)	-0.51	inactive
CLVS1 (clavesin 1)	-0.66	inactive
CLVS1 (clavesin 1)	-0.99	inactive
SCP2D1 (SCP2 sterol binding domain containing 1)	1.67	inactive
SCP2D1 (SCP2 sterol binding domain containing 1)	0.83	inactive
SCP2D1 (SCP2 sterol binding domain containing 1)	1.14	inactive
SCP2D1 (SCP2 sterol binding domain containing 1)	2.01	inactive
SLC10A7	-0.48	inactive
SLC10A7	-0.46	inactive
SLC10A7	-0.44	inactive
SLC10A7	-0.01	inactive
SLC4A8	0.77	inactive
SLC4A8	1.93	inactive
SLC4A8	2.33	inactive
SLC4A8	1.86	inactive
GPT (glutamic--pyruvic transaminase)		inactive
GPT (glutamic--pyruvic transaminase)	1.43	inactive
GPT (glutamic--pyruvic transaminase)	2.96	active
GPT (glutamic--pyruvic transaminase)	1.91	inactive
GPT (glutamic--pyruvic transaminase)	2.31	inactive
SMAD4 (SMAD family member 4)	-1.03	inactive
SMAD4 (SMAD family member 4)	-1.44	inactive
SMAD4 (SMAD family member 4)	-1.53	active
SMAD4 (SMAD family member 4)	-0.7	inactive
SNAPC1 (small nuclear RNA activating complex polypeptide 1)	1.11	inactive
SNAPC1 (small nuclear RNA activating complex polypeptide 1)	2.04	inactive
SNAPC1 (small nuclear RNA activating complex polypeptide 1)	2.23	inactive
SNAPC1 (small nuclear RNA activating complex polypeptide 1)	1.25	inactive
BCOR (BCL6 corepressor)	0.18	inactive
BCOR (BCL6 corepressor)	-0.25	inactive
BCOR (BCL6 corepressor)	-0.36	inactive
BCOR (BCL6 corepressor)	-0.76	inactive
KRTAP19-3 (keratin associated protein 19-3)	-1	inactive
KRTAP19-3 (keratin associated protein 19-3)	-0.85	inactive
KRTAP19-3 (keratin associated protein 19-3)	-1.03	inactive
KRTAP19-3 (keratin associated protein 19-3)	-1.62	active
UPP2 (uridine phosphorylase 2)	0.62	inactive
UPP2 (uridine phosphorylase 2)	0.81	inactive
UPP2 (uridine phosphorylase 2)	0.98	inactive
UPP2 (uridine phosphorylase 2)	0.39	inactive
TTC38 (tetratricopeptide repeat domain 38)	0.18	inactive
TTC38 (tetratricopeptide repeat domain 38)	0.31	inactive
TTC38 (tetratricopeptide repeat domain 38)	-0.47	inactive
TTC38 (tetratricopeptide repeat domain 38)	0.95	inactive
ATP6V1G1 (ATPase H+ transporting V1 subunit G1)	-0.49	inactive
ATP6V1G1 (ATPase H+ transporting V1 subunit G1)	0.45	inactive
ATP6V1G1 (ATPase H+ transporting V1 subunit G1)	0.04	inactive
ATP6V1G1 (ATPase H+ transporting V1 subunit G1)	-0.58	inactive
DNAI1 (dynein axonemal intermediate chain 1)	-0.09	inactive
DNAI1 (dynein axonemal intermediate chain 1)	1.33	inactive
DNAI1 (dynein axonemal intermediate chain 1)	1.94	inactive
DNAI1 (dynein axonemal intermediate chain 1)	1.1	inactive
ADGRF4 (adhesion G protein-coupled receptor F4)	-0.73	inactive
ADGRF4 (adhesion G protein-coupled receptor F4)	-0.4	inactive
ADGRF4 (adhesion G protein-coupled receptor F4)	-0.96	inactive
ADGRF4 (adhesion G protein-coupled receptor F4)	-0.04	inactive
IPO11 (importin 11)	-0.79	inactive
IPO11 (importin 11)	-0.41	inactive
IPO11 (importin 11)	0.43	inactive
IPO11 (importin 11)	1.05	inactive
OLFML2B (olfactomedin like 2B)	1.3	inactive
OLFML2B (olfactomedin like 2B)	0.39	inactive
OLFML2B (olfactomedin like 2B)	0.72	inactive
OLFML2B (olfactomedin like 2B)	-1.01	inactive
CHERP (calcium homeostasis endoplasmic reticulum protein)	0.8	inactive
CHERP (calcium homeostasis endoplasmic reticulum protein)	0.53	inactive
CHERP (calcium homeostasis endoplasmic reticulum protein)	0.7	inactive
CHERP (calcium homeostasis endoplasmic reticulum protein)	0.36	inactive
C18orf54 (chromosome 18 open reading frame 54)	1.26	inactive
C18orf54 (chromosome 18 open reading frame 54)	1.76	inactive
C18orf54 (chromosome 18 open reading frame 54)	1.32	inactive
C18orf54 (chromosome 18 open reading frame 54)	2.11	inactive
NRN1 (neuritin 1)	-1.42	inactive
NRN1 (neuritin 1)	-1.14	inactive
NRN1 (neuritin 1)	0.33	inactive
NRN1 (neuritin 1)	-1.54	active
KCNK7 (potassium two pore domain channel subfamily K member 7)	-0.4	inactive
KCNK7 (potassium two pore domain channel subfamily K member 7)	1.6	inactive
KCNK7 (potassium two pore domain channel subfamily K member 7)	0.78	inactive
KCNK7 (potassium two pore domain channel subfamily K member 7)	0.28	inactive
NFATC4 (nuclear factor of activated T cells 4)	-1	inactive
NFATC4 (nuclear factor of activated T cells 4)	-1.31	inactive
NFATC4 (nuclear factor of activated T cells 4)	2.06	inactive
NFATC4 (nuclear factor of activated T cells 4)	0.34	inactive
BBS5 (Bardet-Biedl syndrome 5)	-0.42	inactive
BBS5 (Bardet-Biedl syndrome 5)	-0.79	inactive
BBS5 (Bardet-Biedl syndrome 5)	0.18	inactive
BBS5 (Bardet-Biedl syndrome 5)	-0.35	inactive
MFN2 (mitofusin 2)	-0.09	inactive
MFN2 (mitofusin 2)	0.16	inactive
MFN2 (mitofusin 2)	-0.41	inactive
MFN2 (mitofusin 2)	0.56	inactive
H6PD (hexose-6-phosphate dehydrogenase/glucose 1-dehydrogenase)	1.25	inactive
H6PD (hexose-6-phosphate dehydrogenase/glucose 1-dehydrogenase)	0.29	inactive
H6PD (hexose-6-phosphate dehydrogenase/glucose 1-dehydrogenase)	-0.05	inactive
H6PD (hexose-6-phosphate dehydrogenase/glucose 1-dehydrogenase)	-0.69	inactive
SSX4 (SSX family member 4)	-0.38	inactive
SSX4 (SSX family member 4)	-0.15	inactive
SSX4 (SSX family member 4)	-1.52	active
SSX4 (SSX family member 4)	-0.56	inactive
